The record followed here is paper PMC9469100, “Turning Nonselective Inhibitors of Type I Protein Arginine Methyltransferases into Potent and Selective Inhibitors of Protein Arginine Methyltransferase 4 through a Deconstruction–Reconstruction and Fragment-Growing Approach” (Journal of Medicinal Chemistry, 2022).

As a reminder, the Papp is the rate of passage across a membrane or cell layer, normalised by area and donor concentration. Low readings indicate poor permeation, high ones ready permeation.

Each structure is given as a SMILES string.

The nature of this data set: Parallel artificial membrane permeability assay (PAMPA). In kind it is in vitro ADME. The note with it: phosphate buffer pH 7.4, donor 0.2 mM, 24 h at room temperature. On the procedure:
A donor solution (0.2 mM) was prepared by diluting 20 mM dimethyl sulfoxide (DMSO) compound stock solution using phosphate buffer (pH 7.4, 0.01 M). Filters were coated with 5 μL of a 1% (w/v) dodecane solution of L-α-phosphatidylcholine. Donor solution (150 μL) was added to each well of the filter plate. To each well of the acceptor plate, 300 μL of solution (5% DMSO in phosphate buffer) was added. Selected compounds were tested in triplicate; propranolol and furosemide were used as positive and negative controls. The sandwich was incubated for 24 h at room temperature under gentle shaking. After the incubation time, the sandwich plates were separated, and 250 μL of the acceptor plate was transferred to a UV quartz microtiter plate and measured by UV spectroscopy, using a Multiskan GO microplate spectrophotometer (Thermo Fisher Scientific) at 250–500 nm at a step of 5 nm. Reference solutions (250 μL) were prepared diluting the sample stock solutions to the same concentration as that with no membrane barrier. The apparent permeability value Papp is determined from the ratio r of the absorbance of the compound found in the acceptor chamber divided by the theoretical equilibrium absorbance (determined independently), the Faller modification[133] of the Sugano equation:[134] [drawing 1] […]
(In PAMPA a lipid-coated filter parts donor from acceptor wells.)

With `NS(=O)(=O)c1cc(C(=O)O)c(NCc2ccco2)cc1Cl` [furosemide, reference compound], the Papp at 24 h, 0.2 mM was found to be 0.034 ×10⁻⁶ cm/s.
